In experiment [1] the target is soluble CD28 comprising its extracellular domain fused to IgG1-Fc dimer (CD28-Fc) (human) (UniProt P10747). Briefly: SPR; both purified.
The target of experiment [2] is egg white lysozyme (14.3 kD) (UniProt P00698). As to the kind of experiment: far-Western, overlay or dot blot; both purified.

By UniProt entry, the sequences of proteins in these tests, tags left out. Residues count along the entry.
UniProt P61823, residues 27-150: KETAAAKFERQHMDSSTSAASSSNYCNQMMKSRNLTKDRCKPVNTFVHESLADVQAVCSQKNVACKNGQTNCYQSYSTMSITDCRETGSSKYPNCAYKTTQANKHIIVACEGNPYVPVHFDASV

The text below walks through data of publication PMC3172200.

No constants are given. Whether binding was seen depends on the method and setting.

Regarding “ribonuclease A (from UniProt P61823 27-150) (enzyme)”, the binding result in experiment [1] was “no binding (tested: four 2-fold increments from 3.12 µM)”.

In the case of “soluble CD28 comprising its extracellular domain fused to IgG1-Fc dimer (CD28-Fc) (from UniProt P10747 19-152) (Fc fusion)”, the binding entry in experiment [2] is “no binding (tested: 0.5 µg/ml CD28-Fc)”.
